# Entries after “also recorded” stand apart in the source; their conditions may differ. For at least one compound, name, drawing or mass did not settle the structure.
# Test system: intracranial human serially passaged GBM xenograft
# Assay: Dasatinib in intracranial human serially passaged GBM xenograft model
# Format: in vivo, mouse
# [1] = short window of dasatinib treatment
structure (smiles),measurement,setting,value
Cc1nc(Nc2ncc(C(=O)Nc3c(C)cccc3Cl)s2)cc(N2CCN(CCO)CC2)n1 [dasatinib],SFK phosphorylation in vivo,"mouse, in vivo",inhibits SFK phosphorylation
same,apoptosis in vivo,"mouse, in vivo",promotes apoptosis
same,glioblastoma invasion,"mouse, in vivo",inhibits glioblastoma invasion
same,survival in vivo,[1],greatly enhances survival; also recorded: significantly enhances survival
same,tumor regression (optical luminescence imaging),[1],promotes tumor regression; also recorded: causes tumor regression

# — US20100291584A1, “MICROFLUIDIC IMAGING CYTOMETRY” (The Regents of the University of California, priority 2008, published 2010)
